Here are results for six targets from the supplement of paper PMC12819154, “High-throughput peptide-centric local stability assay extends protein–ligand identification to membrane proteins, tissues and bacteria” (Nature Structural & Molecular Biology, 2025).

Chains of the proteins cited; added tags and fusions are not shown. Lines headed by an entry give the natural chain unless they say otherwise; changes in a name come on top.
UniProt Q8QZX5: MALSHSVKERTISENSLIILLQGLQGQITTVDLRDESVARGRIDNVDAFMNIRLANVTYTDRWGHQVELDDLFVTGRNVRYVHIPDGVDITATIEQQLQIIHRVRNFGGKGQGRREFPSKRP
UniProt Q8R143: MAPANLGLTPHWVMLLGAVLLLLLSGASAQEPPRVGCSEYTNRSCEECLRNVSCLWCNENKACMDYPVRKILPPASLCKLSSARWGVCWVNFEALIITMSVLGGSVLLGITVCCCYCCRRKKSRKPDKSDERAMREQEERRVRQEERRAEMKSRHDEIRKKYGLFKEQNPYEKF
UniProt Q8R059: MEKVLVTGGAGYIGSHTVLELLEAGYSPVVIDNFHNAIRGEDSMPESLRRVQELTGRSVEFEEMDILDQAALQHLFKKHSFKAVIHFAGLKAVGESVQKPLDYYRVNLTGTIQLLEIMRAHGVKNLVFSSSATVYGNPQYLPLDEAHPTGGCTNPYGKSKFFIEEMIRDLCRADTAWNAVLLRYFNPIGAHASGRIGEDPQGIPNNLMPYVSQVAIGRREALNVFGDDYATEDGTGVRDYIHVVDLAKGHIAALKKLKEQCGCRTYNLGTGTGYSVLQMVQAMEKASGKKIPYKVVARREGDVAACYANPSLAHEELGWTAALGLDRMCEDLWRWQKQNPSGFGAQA
UniProt Q8R1K4: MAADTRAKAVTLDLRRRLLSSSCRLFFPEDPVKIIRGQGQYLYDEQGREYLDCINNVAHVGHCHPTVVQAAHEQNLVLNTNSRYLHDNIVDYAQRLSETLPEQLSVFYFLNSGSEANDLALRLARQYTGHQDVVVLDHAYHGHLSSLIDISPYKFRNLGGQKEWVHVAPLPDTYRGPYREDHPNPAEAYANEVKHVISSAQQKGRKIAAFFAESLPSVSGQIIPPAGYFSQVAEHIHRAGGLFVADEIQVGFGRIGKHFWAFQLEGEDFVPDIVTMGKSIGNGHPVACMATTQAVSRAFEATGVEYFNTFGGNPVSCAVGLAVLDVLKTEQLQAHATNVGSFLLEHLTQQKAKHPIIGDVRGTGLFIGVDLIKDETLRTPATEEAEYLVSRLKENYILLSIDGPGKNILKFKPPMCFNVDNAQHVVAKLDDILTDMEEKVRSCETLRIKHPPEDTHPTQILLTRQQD
UniProt Q8R0N6: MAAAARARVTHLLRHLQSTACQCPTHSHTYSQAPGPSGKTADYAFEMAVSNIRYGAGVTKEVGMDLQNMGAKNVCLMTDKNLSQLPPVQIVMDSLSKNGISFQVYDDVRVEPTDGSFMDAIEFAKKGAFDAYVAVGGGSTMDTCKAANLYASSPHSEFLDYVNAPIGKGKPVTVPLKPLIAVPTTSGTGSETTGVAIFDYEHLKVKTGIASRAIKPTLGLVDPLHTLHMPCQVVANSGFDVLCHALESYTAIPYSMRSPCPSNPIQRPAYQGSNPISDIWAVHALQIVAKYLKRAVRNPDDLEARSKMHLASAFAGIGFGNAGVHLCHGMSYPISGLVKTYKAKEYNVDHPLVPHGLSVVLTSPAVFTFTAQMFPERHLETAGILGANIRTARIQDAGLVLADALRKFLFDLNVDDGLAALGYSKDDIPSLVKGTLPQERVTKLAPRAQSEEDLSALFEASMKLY
UniProt Q8K288: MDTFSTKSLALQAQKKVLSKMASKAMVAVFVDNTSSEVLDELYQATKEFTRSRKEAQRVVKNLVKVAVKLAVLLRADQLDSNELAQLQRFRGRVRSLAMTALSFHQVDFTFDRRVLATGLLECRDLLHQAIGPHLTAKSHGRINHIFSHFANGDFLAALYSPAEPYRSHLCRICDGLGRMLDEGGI

The other results are listed elsewhere or left out. Most values lie at the level of the controls, where differences are scatter.

Compound in the test: CN[C@@H]1C[C@H]2O[C@@](C)([C@@H]1OC)n1c3ccccc3c3c4c(c5c6ccccc6n2c5c31)C(=O)NC4 [staurosporine]
The test is described as follows: log2 fold change of tryptic peptide abundance, ligand vs vehicle (limited proteolysis) (log2 ratio); higher = more trypsin-susceptible (destabilized). The following applies: ligand concentration: 20 uM; sample: mouse liver crude lysate; replicate design: treated separately.
For the target “UniProt Q8QZX5 (peptide sequence: WGHQVELDDLFVTGR, peptide start residue: 63)”, the log2 fold change was -0.21. In the case of “UniProt Q8R143 (peptide sequence: SRHDEIR, peptide start residue: 153)” it was 0.151; in that of “UniProt Q8R059 (peptide sequence: AVIHFAGLK, peptide start residue: 83)”, 0.353. As for “UniProt Q8R1K4 (peptide sequence: LFFPEDPVK, peptide start residue: 25)”, the figure is 0.443. As for “UniProt Q8R0N6 (peptide sequence: HLETAGILGANIR, peptide start residue: 378)”, the figure is -0.128. With “UniProt Q8K288 (peptide sequence: SLALQAQKK, peptide start residue: 8)”, the log2 fold change is -0.196.
